PubChem BioAssay AID743454 – Peter MacCallum Cancer Centre, 2014
Purpose: 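Genes whose loss kills vorinostat-resistant colon cancer cells under vorinostat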 (primary screen). Cell system: human HCT116-VR colon cancer cells, selected for vorinostat resistance. Reagents: siRNA pool against human genes, 40 nM siRNA pool. Duration: vorinostat for 24 h, read-out about 72 h after transfection. Challenge: vorinostat at 2.5 µM final. Read-out: 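Cell viability by CellTiter-Fluor and caspase 3/7 activity by luminescence, each scaled to mock wells per plate, duplicates averaged, then robust z-scored over all plates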. Direction: viability robust z-score: higher = more viable cells than screen typical; caspase robust z-score: higher = more caspase 3/7 activity than screen typical. Active means: 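Hits are knock-downs in viability class RV1/RV2 or caspase class CA1/CA2, excluding ones that killed cells in the no-drug cell-count arm; hits then retested with single siRNAs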.
Shown is an unselected part of about 18,000 reagents. 450 of them (2.5%) were called active. 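Single biological run; no consistent viability z cut-off exists, so the class columns, not z-scores, define the calls.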 No sequences are given here.

The opening 3 entries as a preview:
gene symbol,viability hit class,caspase hit class,viability robust z-score,caspase robust z-score,Call
SLIRP,no change,no change,1.66,0.17,inactive
DDHD1,no change,no change,0.16,-0.12,inactive
THEM4,no change,no change,0.53,-0.14,inactive

Results, from the start:
gene symbol,viability hit class,caspase hit class,viability robust z-score,caspase robust z-score,Call
SLIRP,no change,no change,1.66,0.17,inactive
DDHD1,no change,no change,0.16,-0.12,inactive
THEM4,no change,no change,0.53,-0.14,inactive
OPRL1,no change,no change,0.37,1.21,inactive
ZDHHC19,no change,no change,-0.54,-0.73,inactive
DNAH11,no change,no change,0.29,-1.11,inactive
FRMD1,no change,no change,1.37,2.34,inactive
AHCTF1,no change,no change,-1.82,1.44,inactive
SLC33A1,no change,no change,-0.46,-0.76,inactive
VPS11,no change,CA2 (caspase activation),-2.35,5.77,active
ZNF701,no change,no change,-0.66,4.09,inactive
SLF1,no change,no change,0.26,1.42,inactive
TEX12,no change,no change,-0.49,0.5,inactive
SPSB2,no change,no change,-0.32,-0.43,inactive
SNAPC4,no change,no change,-0.6,1.87,inactive
C1QTNF5,no change,no change,-0.34,1.55,inactive
KHDRBS3,no change,no change,0.46,-0.29,inactive
CRYGN,no change,no change,-0.5,0.54,inactive
KIFBP,no change,no change,-0.8,2.82,inactive
CCL15,no change,no change,-0.04,0.05,inactive
IL2RA,no change,no change,0.9,0.34,inactive
PLAUR,no change,no change,0.52,0.01,inactive
H2AC20,no change,no change,0.6,0.24,inactive
MED24,no change,no change,1.77,-0.75,inactive
GOLGA8G,no change,no change,1.48,0.06,inactive
GRIK4,no change,no change,-2.85,4.47,inactive
BCORL1,no change,no change,-0.25,2.37,inactive
TMPPE,no change,no change,0.08,0.4,inactive
SUPV3L1,no change,no change,1.64,-0.57,inactive
PDE4DIP,no change,no change,-1.59,-0.63,inactive
LDHD,no change,no change,-0.26,0.36,inactive
C5AR1,no change,no change,0.4,-0.08,inactive
S100A7,no change,no change,-0.02,-0.45,inactive
ETV7,no change,no change,-2.1,1.52,inactive
SOX9,no change,no change,-1.52,1.54,inactive
TEKT1,no change,no change,0.22,-0.34,inactive
MMP7,no change,no change,-0.44,1.83,inactive
C2CD2L,no change,no change,1.07,-0.6,inactive
GPRC5C,no change,no change,1.22,-1.21,inactive
